No constants are given. Whether binding was seen depends on the method and setting. Binding seen in cells or lysates may run through a third protein. Here binding means that the protein was enriched with, or labelled near, the bait; the list need not be complete.
Molecular target: Nucleophosmin 1 (mouse (endogenous in MNK3)) (UniProt Q61937)
Assay: affinity purification with mass spectrometry; NPM1 immunoprecipitated from MNK3 cells with or without stimulation; SDS-PAGE, silver stain; band of ~70 kDa enriched in stimulated cells excised and identified by MS (Q Exactive, MASCOT)

Chains of the proteins cited; added tags and fusions are not shown.
UniProt Q61937: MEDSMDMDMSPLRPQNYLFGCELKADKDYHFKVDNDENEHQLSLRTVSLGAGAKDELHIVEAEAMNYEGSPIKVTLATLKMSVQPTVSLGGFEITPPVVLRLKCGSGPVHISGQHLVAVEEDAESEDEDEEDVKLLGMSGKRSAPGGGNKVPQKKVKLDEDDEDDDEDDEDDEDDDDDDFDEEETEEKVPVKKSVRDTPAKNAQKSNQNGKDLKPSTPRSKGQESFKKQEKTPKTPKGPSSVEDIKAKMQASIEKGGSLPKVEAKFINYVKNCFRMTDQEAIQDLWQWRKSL
UniProt Q04207: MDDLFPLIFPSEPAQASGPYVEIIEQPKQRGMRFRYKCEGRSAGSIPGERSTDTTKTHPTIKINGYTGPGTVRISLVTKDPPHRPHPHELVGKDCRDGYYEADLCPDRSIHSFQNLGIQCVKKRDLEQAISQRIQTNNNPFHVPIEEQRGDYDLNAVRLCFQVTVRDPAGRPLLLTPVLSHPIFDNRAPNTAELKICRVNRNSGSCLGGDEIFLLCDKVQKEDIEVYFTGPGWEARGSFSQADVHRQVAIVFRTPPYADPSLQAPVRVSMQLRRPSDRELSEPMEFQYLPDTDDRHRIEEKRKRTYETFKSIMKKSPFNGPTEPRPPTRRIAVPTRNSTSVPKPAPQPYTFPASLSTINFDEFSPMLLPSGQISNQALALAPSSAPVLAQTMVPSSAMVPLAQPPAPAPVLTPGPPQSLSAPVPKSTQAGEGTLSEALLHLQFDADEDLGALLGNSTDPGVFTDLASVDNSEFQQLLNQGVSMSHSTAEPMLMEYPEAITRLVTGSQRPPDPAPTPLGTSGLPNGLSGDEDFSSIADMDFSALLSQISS

Q: “p65, a component of the nuclear factor kappa B (NF-κB) transcription factor (from UniProt Q04207 1-549)” was tested. Which binding did it give?
A: binds
